# Measurements as given in the supplement of paper PMC6821926, “Diaminoquinazoline MMV675968 from Pathogen Box inhibits Acinetobacter baumannii growth through targeting of dihydrofolate reductase” (Scientific Reports, 2019).
# ± gives the uncertainty stated by the source. The list shows a part of the results.
# Tests used:
# [1] = tested on: Acinetobacter baumannii Mahidol; test: percent growth relative to DMSO-treated control; higher = less growth inhibition; settings: 10 µM; 18 h
# [2] = tested on: Acinetobacter baumannii Naval-81; test: as above; settings: 10 µM; 18 h
SMILES,percent growth [1] [%],percent growth [2] [%]
COC(=O)C1=C(C)NC(C)=C(C(=O)OC(C)C)C1c1cccc2nonc12 (stereo unspecified),57.4 ± 31,80.9 ± 16
c1ccc(-c2cc(N3CCCCC3)c3ccccc3n2)nc1,97.2 ± 37,98.8 ± 29
COc1cccc(-n2nnnc2S(C)(=O)=O)c1,99.9 ± 2.4,79.91 ± 0.67
C[C@H](c1ccc2c(c1)CCCC2)N(C)c1ncc2c(N)nc(N)nc2n1,85.6 ± 5.5,101 ± 12
C[C@]1(O)C[C@@H](c2nc(-c3ccc4ccc(-c5ccccc5)nc4c3)c3c(N)nccn32)C1,83.6 ± 46,84.9 ± 15
CCN(CC)CCCN1CCN(C(=O)c2cccc(-c3noc(C(F)(F)F)n3)c2)CC1,86 ± 12,101 ± 12
CC(=O)N1CCc2cc3nc(C)cc(C)c3cc21,56.3 ± 50,98 ± 10
COc1ccc(OC(C)C(=O)Nc2ccc(Cl)cc2C)cc1 (stereo unspecified),101 ± 12,92.7 ± 7.4
CO[C@H]1/C=C/O[C@@]2(C)Oc3c(C)c(O)c4c(O)c(/c(=C/NN5CCN(C)CC5)c(O)c4c3C2=O)=N\C(=O)/C(C)=C\C=C/[C@H](C)[C@H](O)[C@@H](C)[C@@H](O)[C@@H](C)[C@H](OC(C)=O)[C@@H]1C,0.172 ± 0.67,0
Clc1ccc(-n2cc(COc3ccnc4ccccc34)nn2)cc1,73 ± 20,96.5 ± 4.1
COc1ccc(OC)c(NCc2ccc3nc(N)nc(N)c3c2Cl)c1,19.4 ± 56,0
OCCc1ccc(Nc2nccc(-c3nnc4ccccn34)n2)cc1,101 ± 6.3,89.3 ± 10
O=C(Nc1cnc2ccccc2c1)c1cccc(-n2cnnn2)c1,103 ± 6.9,86 ± 23
O=C(Nc1c(O)cccc1-c1nc2c(C(=O)O)cccc2o1)c1cc(-c2ccccc2)on1,101 ± 9.8,98 ± 12
Cc1cc(C)cc(COc2ccc3c(C)c(CCC(=O)O)c(=O)oc3c2C)c1,92 ± 5.3,100 ± 13
Cc1ccccc1CN1CCC(O)(c2ccc(Cl)c(C(F)(F)F)c2)CC1,84 ± 19,92.4 ± 3
O=C(CN1CCOCC1)Nc1ccc2ncnc(Nc3ccc(OCc4cccc(F)c4)c(Cl)c3)c2c1,88.6 ± 11,87.8 ± 9
CC(=O)Nc1ccc(-c2noc(CC3CCCN(Cc4cccc(F)c4C)C3)n2)cc1 (stereo unspecified),93.6 ± 7.8,98.7 ± 10
CC(C)(C)c1ccc(N[C@@H]2CCCC[C@H]2NC(=O)c2ccco2)cc1,89.3 ± 8.8,81.5 ± 13
FC(F)(F)c1nnc2ccc(Cl)nn12,55.8 ± 51,85.5 ± 18
CC(C)C(Oc1cccc2ccccc12)C(=O)O (stereo unspecified),91 ± 8.1,95.1 ± 8.3
O=C(Nc1cccc(-c2ccc(NCCCN3CCCC3)nc2)c1)c1ccccc1,72.5 ± 48,75.2 ± 16
COc1ccc(-c2cnc3ccc(N4CCCC4)nn23)cc1OC,84.1 ± 14,99 ± 7.7
COc1cc(C2=NCCN2)ccc1-c1cn(-c2cccc(C3=NCCN3)c2)nn1,92.9 ± 7.5,89.5 ± 3

SMILES,percent growth [1] [%],percent growth [2] [%]
CCNC(=O)C(C)Nc1nc(-c2cccnc2)nc2sc(C)c(C)c12 (stereo unspecified),101 ± 16,107 ± 23
CCCCCCCCCCCCCCCCOP(=O)([O-])OCC[N+](C)(C)C,88.1 ± 5.7,91.5 ± 8.7
CS(=O)(=O)Cc1nc2ccccc2oc1=O,53.8 ± 29,84 ± 6
CCc1nc2ccc(Cl)cn2c1C(=O)NCc1ccc(N2CCC(c3ccc(OC(F)(F)F)cc3)CC2)cc1,56.3 ± 33,80.7 ± 15
COc1ccccc1OCCCCn1c(C2CC2)nc2ccccc21,105 ± 18,80 ± 16
O=C(NCCN1CCCC1)c1cc(NCCCCN2CCC(F)(F)CC2)nc2ccc(Cl)cc12,97.2 ± 7,85.1 ± 9.9
Cc1cccc(Cn2ccc(NC(=O)c3ccc4c(c3)OCO4)n2)c1,46.5 ± 47,105 ± 30
COc1ccc2nc(C)cc(OCC(=O)Nc3ccccc3OC)c2c1,84.6 ± 20,102 ± 11
Cc1nnc(NC(=O)c2cn(-c3ccccc3)nc2-c2ccccc2C)o1,115 ± 49,88 ± 28
COc1cc(Br)cc2cc(C(=O)Nc3cccc(C(F)(F)F)c3)c(=O)oc12,89.8 ± 12,98.2 ± 0.54
CC1CS(=O)(=O)CCN1/N=C/c1ccc([N+](=O)[O-])o1 (stereo unspecified),94.6 ± 7.8,100 ± 22
CC(C)(C)c1cc(C(=O)Nc2cccnc2)cc(C(=O)Nc2cccnc2)c1,99.9 ± 41,78.8 ± 12
CS(=O)(=O)N1CCC(Cn2nc(Cc3cccc4ccccc34)c3c(N)ncnc32)CC1,92.8 ± 8.1,89.5 ± 14
COc1cc(NC(=O)Cc2nn(C)c(=O)c3ccccc23)ccc1Cl,96.6 ± 11,95.2 ± 21
CCCNC(=O)N1CCC2(CC1)CC(=O)c1cc(C)ccc1O2,94 ± 10,98.1 ± 7.5
COc1cc(C(F)(F)F)nc2ccc(C)c(N)c12,101 ± 3.4,60.8 ± 48
CNc1snc(C)c1C(=O)NCCOc1ccc(OC)cc1,60.2 ± 39,97.8 ± 9.5
Clc1cccc(CO[C@H]2CCc3ccccc3[C@@H]2n2ccnn2)c1,92.6 ± 12,87.6 ± 6.4
Cc1cc(Cl)c(S(=O)(=O)N2CCCC2)cc1OCC(=O)NC1CCCCC1,92.4 ± 7.5,89.4 ± 4.8
CCOC(=O)NC(=O)c1ccsc1NC(=O)c1nc2ccccc2s1,79.9 ± 43,106 ± 31
N=C(N)c1ccc(-c2cc(-c3ccccc3)on2)cc1,86.9 ± 14,87.2 ± 4.8
CC1CC1C(=O)NC1CCN(CC2(c3ccccc3)CCCCC2)CC1 (stereo unspecified),81.8 ± 24,105 ± 43
O=C(Nc1cccnc1)c1c(O)c2cccc3c2n(c1=O)CC3,77.8 ± 34,112 ± 53
Cc1cc(C)nc(-n2nc(C)cc2Nc2ccccc2)n1,97.2 ± 6.8,102 ± 18

SMILES,percent growth [1] [%],percent growth [2] [%]
CCc1nc2ccc(C(=O)NCc3ccc4c(c3)OCO4)cn2c1N(C)Cc1cccs1,85.1 ± 3.5,102 ± 13
O=C(Cn1ccnc1[N+](=O)[O-])NCc1ccccc1,87.8 ± 38,115 ± 42
Cc1cc(C)n(-c2ccc(NC(=O)C3CCN(Cc4cnc(C)s4)CC3)cc2)n1,92.1 ± 5.9,83.7 ± 10
CN1CCN(c2nccc3[nH]c(-c4cccc(F)c4)cc23)CC1,96.7 ± 14,80 ± 7
FC(F)(F)c1cccc(-c2nc3c(NCc4ccncc4)nccc3[nH]2)c1,92.58 ± 0.81,89.7 ± 4
CC(=O)NC[C@H]1CN(c2ccc(N3CCSCC3)c(F)c2)C(=O)O1,62.2 ± 40,98.2 ± 22
Nc1ncnc2c1ncn2[C@@H]1O[C@H](COS(=O)(=O)NC(=O)c2ccccc2O)[C@@H](O)[C@H]1O,98.1 ± 6.8,87 ± 6.3
CCOc1ccccc1C(=O)Nc1cccc(-c2nc3ncccn3c2C)c1,93.5 ± 3.8,97.7 ± 13
O=C(NCc1cc(Cl)cc(Cl)c1)c1c(C(F)(F)F)nc2ccccn12,88.5 ± 11,102 ± 8.3
Nc1ncnc2c1ncn2C[C@@H](O)[C@@H](O)C(=O)O,76.7 ± 38,90.2 ± 19
O=C(NC1CC1)c1ccc(CSCc2ccccc2Cl)o1,85.2 ± 9.2,102 ± 7.3
O=C(NCCc1ccccc1)c1cc(-c2cccnc2)cnc1NCC1CC1,90.9 ± 6.2,105 ± 26
O=C(NCc1ccco1)N1CCN(Cc2ccc(Cl)s2)CC1,107 ± 19,88.3 ± 17
O=C(c1ccc(NCCO)cc1)C1C[C@H]1c1ccc(Cl)cc1 (stereo partly specified),87.7 ± 15,85.7 ± 12
O[C@@H](c1cc(C(F)(F)F)nc2c(C(F)(F)F)cccc12)[C@H]1CCCCN1,73.3 ± 30,82.8 ± 12
COc1ccc(-c2cnc3ccc(NCc4ccc(S(N)(=O)=O)cc4)nn23)cn1,92.2 ± 5.4,84.3 ± 18
CC(C)(C)c1cnc(NC(=O)c2ccccc2O)s1,105 ± 6.9,84.6 ± 28
N#Cc1nc(-c2ccccc2)oc1S(=O)(=O)c1ccc(Cl)cc1,109 ± 4.8,83.3 ± 4
COc1cccc(-c2cc3c(Nc4cccnc4)nccc3[nH]2)c1,101 ± 8.9,79.5 ± 44
Nc1ncnc2[nH]nc(Cc3cccc4ccccc34)c12,90.6 ± 9,92.9 ± 16
CCOc1ccc2cc(-c3nn(C(C)(C)C)c(N)c3C(N)=O)cnc2c1,78.9 ± 51,85.7 ± 29
Nc1ncc(Br)cc1-c1nc2cc(Cl)cnc2[nH]1,101 ± 3.5,77.2 ± 66
COc1ccc(CCN2CCC(NCc3cccc(N(C)C)c3)CC2)cc1,94.6 ± 5.5,86 ± 4.8
CCCc1ccc(S(=O)(=O)Nc2ccc(CN3CCN(CC4CC4)CC3)cc2)cc1,90.9 ± 5.5,96.6 ± 3.7

# Another view of 17 compounds above.
SMILES	percent growth [1] [%]	percent growth [2] [%]
CCN(CC)CCCN1CCN(C(=O)c2cccc(-c3noc(C(F)(F)F)n3)c2)CC1	86 ± 12	101 ± 12
CO[C@H]1/C=C/O[C@@]2(C)Oc3c(C)c(O)c4c(O)c(/c(=C/NN5CCN(C)CC5)c(O)c4c3C2=O)=N\C(=O)/C(C)=C\C=C/[C@H](C)[C@H](O)[C@@H](C)[C@@H](O)[C@@H](C)[C@H](OC(C)=O)[C@@H]1C	0.172 ± 0.67	0
Clc1ccc(-n2cc(COc3ccnc4ccccc34)nn2)cc1	73 ± 20	96.5 ± 4.1
O=C(Nc1cccc(-c2ccc(NCCCN3CCCC3)nc2)c1)c1ccccc1	72.5 ± 48	75.2 ± 16
CCCCCCCCCCCCCCCCOP(=O)([O-])OCC[N+](C)(C)C	88.1 ± 5.7	91.5 ± 8.7
CCc1nc2ccc(Cl)cn2c1C(=O)NCc1ccc(N2CCC(c3ccc(OC(F)(F)F)cc3)CC2)cc1	56.3 ± 33	80.7 ± 15
COc1ccccc1OCCCCn1c(C2CC2)nc2ccccc21	105 ± 18	80 ± 16
CC1CS(=O)(=O)CCN1/N=C/c1ccc([N+](=O)[O-])o1 (stereo unspecified)	94.6 ± 7.8	100 ± 22
CS(=O)(=O)N1CCC(Cn2nc(Cc3cccc4ccccc34)c3c(N)ncnc32)CC1	92.8 ± 8.1	89.5 ± 14
COc1cc(C(F)(F)F)nc2ccc(C)c(N)c12	101 ± 3.4	60.8 ± 48
N=C(N)c1ccc(-c2cc(-c3ccccc3)on2)cc1	86.9 ± 14	87.2 ± 4.8
CC(=O)NC[C@H]1CN(c2ccc(N3CCSCC3)c(F)c2)C(=O)O1	62.2 ± 40	98.2 ± 22
O=C(NCc1cc(Cl)cc(Cl)c1)c1c(C(F)(F)F)nc2ccccn12	88.5 ± 11	102 ± 8.3
Nc1ncnc2c1ncn2C[C@@H](O)[C@@H](O)C(=O)O	76.7 ± 38	90.2 ± 19
COc1cccc(-c2cc3c(Nc4cccnc4)nccc3[nH]2)c1	101 ± 8.9	79.5 ± 44
Nc1ncnc2[nH]nc(Cc3cccc4ccccc34)c12	90.6 ± 9	92.9 ± 16
CCOc1ccc2cc(-c3nn(C(C)(C)C)c(N)c3C(N)=O)cnc2c1	78.9 ± 51	85.7 ± 29

# Following part.

SMILES,percent growth [1] [%],percent growth [2] [%]
N#Cc1ccc(-c2cnc(N)c(-c3ccc(C(N)=O)cc3)n2)cc1,87.3 ± 9.5,85.1 ± 7.2
Cc1cc(O)nc(-n2nc(C)cc2C)n1,96.7 ± 1.8,84.4 ± 9.9
Cc1cc(Nc2ccc(C(F)(F)F)cc2)n2ccnc2n1,52.7 ± 13,53.3 ± 1.8
COc1cccc(NC(=O)c2c(NC(=O)c3cccnc3)sc3c2CCC3)c1,105 ± 12,85.4 ± 24
O=C(OCc1ccccc1)N1CCC(c2cc(-c3ccncc3)c(-c3ccc(F)cc3)[nH]2)CC1,81.6 ± 6.3,91.3 ± 1
NCCCC(N)(C(=O)O)C(F)F (stereo unspecified),91.6 ± 39,98.8 ± 32
CC1CCCCN1C(=O)NCCc1coc(-c2ccc(F)cc2)n1 (stereo unspecified),77.9 ± 26,95.3 ± 4.8
Cc1cc(OCC(=O)NCc2ccccc2)c2cc(Br)ccc2n1,95.1 ± 13,104 ± 15
CC(Oc1cccc(Cl)c1)C(=O)Nc1ccc2oc(-c3ccncc3)nc2c1 (stereo unspecified),106 ± 11,91 ± 17
c1cncc(NCc2ccc(-c3cc4ccncc4cc3OC3CCNCC3)s2)c1,93 ± 6.8,107 ± 25
O=C(NCc1nnc2n1CCCCC2)c1ccc(-c2ccc(F)cc2)o1,102 ± 11,88.1 ± 2.4
Cc1nc(-c2ccccn2)nc(NCCc2ccc(S(C)(=O)=O)cc2)c1Cl,94.9 ± 7.6,80 ± 21
O=C(CCC1CCCCC1)Nc1cccc(-c2nnc(-c3ccco3)o2)c1,102 ± 28,92.8 ± 9.7
Cc1ccccc1C(=O)N1N=C(Nc2ccccc2)SC1(C)C,97.8 ± 12,83.9 ± 4
c1ccc2c(c1)CN(CC1CC1)CC1(CCN(Cc3c[nH]c4cnccc34)CC1)O2,99.3 ± 5.3,98.2 ± 21
N#Cc1ccc(-c2ccc(OCC(N)=O)cc2)cc1,95.1 ± 6.9,90.3 ± 16
CCOC(=O)c1cc(-c2csc(Nc3c(C)cc(C)cc3C)n2)on1,111 ± 9.8,101 ± 29
Cc1ccc2c(c1C)NC(=O)C21NN=C(c2ccccc2)S1 (stereo unspecified),52.3 ± 36,87.3 ± 8.5
O=C(Nc1ccnc(-c2cccnc2)n1)c1cc(C(F)(F)F)cc(C(F)(F)F)c1,79.2 ± 8.1,83.4 ± 31
Cc1nn2c(=O)c3c([nH]c2c1-c1ccc(Cl)cc1)CCCC3,101 ± 12,75.8 ± 26
O=C(NCCc1c[nH]c2ccccc12)c1cc2ccccc2oc1=O,88 ± 32,87.5 ± 5.8
